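Vaccinia-infected cells with a two-color viral stage reporter; Venus fluorescence read on a plate reader; the cell line is not named here; timing not stated here. The test concentration is not given here. Percent change in Venus reporter signal; lower (more negative) values mean stronger inhibition of that viral stage.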

Values are in %. How 0% and 100% were set is not given here. Common to all entries: measured here: Venus reporter, other viral stage. This is a side read-out of the assay, for part of the compounds, not drawn at random.

With CC(C)CC#Cc1ccc2c(c1)O[C@H](CN(C)C(=O)c1ccccc1)[C@H](C)CN([C@H](C)CO)S2(=O)=O the assay gave activity change (Venus) -68.96%. Result for Cc1ccc(-c2ccc([C@H]3[C@H]4CN(C(=O)c5ccc(F)cc5)CCCCN4[C@H]3CO)cc2)cc1 was activity change (Venus) -59.09%. Result for C[C@@H]1CCCCO[C@@H](CN(C)Cc2ccc(Cl)c(Cl)c2)[C@H](C)CN([C@@H](C)CO)C(=O)c2cc(NC(=O)Cc3ccccc3)ccc2O1 was activity change (Venus) -56.87%. COc1cccc(-c2ccc(C3[C@@H]4CN(C(=O)c5cnccn5)C[C@H]3N4)cc2)c1 (stereo not given in full) read activity change (Venus) -66.43%. With C[C@@H]1CN([C@@H](C)CO)C(=O)Cc2cc(NC(=O)Nc3ccccc3)ccc2O[C@@H]1CN(C)Cc1ccc(C(F)(F)F)cc1 the assay gave activity change (Venus) -33.79%. Result for N#Cc1cccc(-c2ccc([C@@H]3[C@H](CO)N4CCCCN(C(=O)Cc5ccccc5)C[C@@H]34)cc2)c1 was activity change (Venus) -34.82%.

O=C(C1CCC1)N1CC(=O)N2[C@H](CO)[C@H](c3ccc(C#Cc4cccc(F)c4)cc3)[C@@H]2C1 gave activity change (Venus) -51.64%. Cc1noc(C)c1NC(=O)Nc1ccc2c(c1)CC(=O)N([C@@H](C)CO)C[C@H](C)[C@H](CN(C)Cc1ccc(Cl)c(Cl)c1)O2 gave activity change (Venus) -68.9%. Result for C[C@H]1CN([C@@H](C)CO)C(=O)c2cccc(NC(=O)Nc3ccc(C(F)(F)F)cc3)c2O[C@@H]1CN(C)C(=O)Nc1ccc(C(F)(F)F)cc1 was activity change (Venus) -32.08%. For CNC[C@@H]1Oc2cc(C#Cc3ccccc3F)ccc2S(=O)(=O)N([C@H](C)CO)C[C@H]1C the result was activity change (Venus) -35.16%. C[C@H](CO)N1C[C@H](C)[C@@H](CN(C)Cc2ccc(-c3ccccc3)cc2)Oc2ccc(NC(=O)c3ccncc3)cc2CC1=O gave activity change (Venus) -62.88%. Result for COc1ccc(NC(=O)Nc2ccc3c(c2)C(=O)N([C@@H](C)CO)C[C@H](C)[C@H](CN(C)Cc2ccc4c(c2)OCO4)OCCCC[C@H](C)O3)cc1 was activity change (Venus) -48.66%.

With C[C@H](CO)N1C[C@H](C)[C@@H](CN(C)Cc2ccc(Oc3ccccc3)cc2)Oc2ccc(N(C)C)cc2CC1=O the assay gave activity change (Venus) -51.52%. For C[C@H](CO)N1C[C@H](C)[C@@H](CN(C)Cc2ccc(-c3ccccc3)cc2)OCc2ccccc2-c2c(n(C)c3ccccc23)C1=O the result was activity change (Venus) -32.2%. Result for C[C@@H]1CCCCO[C@H](CN(C)Cc2ccccc2)[C@H](C)CN([C@@H](C)CO)C(=O)c2cc(NS(=O)(=O)c3cccs3)ccc2O1 was activity change (Venus) -49.12%. C[C@@H]1CN([C@H](C)CO)C(=O)c2cc(NS(=O)(=O)c3cccs3)ccc2O[C@@H](C)CCCCO[C@@H]1CN(C)C(=O)Cc1ccccc1 gave activity change (Venus) -31.29%. Cc1ccccc1-c1ccc([C@@H]2[C@@H](CO)N3CCCCN(C(=O)NC4CCCC4)C[C@H]23)cc1 read activity change (Venus) -44.57%. C[C@H]1CCCCO[C@@H](CN(C)CC2CCCCC2)[C@@H](C)CN([C@@H](C)CO)C(=O)c2cc(NC(=O)c3ccccc3)ccc2O1 gave activity change (Venus) -62.47%.

CN1C(=O)c2cc(NC(=O)c3ccc(C(F)(F)F)cc3)ccc2OC[C@@H]2O[C@@H](CC(=O)NC3Cc4ccccc4C3)CC[C@H]21 read activity change (Venus) -45.32%. Result for C[C@H]1CN([C@@H](C)CO)S(=O)(=O)c2ccc(-c3ccccc3)cc2O[C@H]1CN(C)C(=O)Cc1ccccc1 was activity change (Venus) -47.45%. Result for COc1cccc(NC(=O)N(C)C[C@H]2Oc3cc(C#Cc4ccc(F)cc4)ccc3S(=O)(=O)N([C@H](C)CO)C[C@H]2C)c1 was activity change (Venus) -43.62%. For O=C(C1CCCC1)N1CCCCN2[C@@H](CO)[C@@H](c3ccc(-c4cccc(F)c4)cc3)[C@@H]2C1 the result was activity change (Venus) -48.84%. For OC[C@@H]1[C@@H](c2ccc(C#Cc3ccccc3F)cc2)[C@@H]2CN(CC3CCOCC3)CCCCN12 the result was activity change (Venus) -53.97%. C[C@@H]1CN([C@@H](C)CO)C(=O)c2cccc(NC(=O)CCCCCC(=O)Nc3ccccc3N)c2O[C@@H]1CN(C)Cc1ccc(C(F)(F)F)cc1 read activity change (Venus) -60.16%.

Result for CCCC#Cc1ccc([C@@H]2[C@H](CO)N3CCCCN(S(=O)(=O)Cc4ccccc4)C[C@@H]23)cc1 was activity change (Venus) -68.77%. For COc1ccc(NC(=O)Nc2ccc3c(c2)C(=O)N([C@H](C)CO)C[C@@H](C)[C@H](CN(C)Cc2ccc4c(c2)OCO4)OCCCC[C@H](C)O3)cc1 the result was activity change (Venus) -54.93%. CCCNC(=O)N1CC2(CCN(S(=O)(=O)c3ccccc3)CC2)c2c(n(C)c3cc(OC)ccc23)[C@H]1CO read activity change (Venus) -29.87%. With O=C(Nc1cccc(F)c1)N1CCCCN2[C@H](CO)[C@@H](c3ccc(C#Cc4ccccc4)cc3)[C@@H]2C1 the assay gave activity change (Venus) -39.29%. C[C@@H]1CN([C@H](C)CO)S(=O)(=O)c2ccc(-c3ccc(F)cc3)cc2O[C@@H]1CN(C)CC1CC1 read activity change (Venus) -18.5%. Cc1ccccc1-c1ccc2c(c1)O[C@@H](CN(C)C(=O)Nc1ccc(F)cc1)[C@H](C)CN([C@H](C)CO)S2(=O)=O gave activity change (Venus) -47.05%.

For Cc1ccccc1-c1ccc(C2[C@@H]3CN(Cc4cccnc4)C[C@H]2N3)cc1 (stereo not given in full) the result was activity change (Venus) -32.06%.

The last 2 entries again:

SMILES	activity change (Venus) (%)
Cc1ccccc1-c1ccc2c(c1)O[C@@H](CN(C)C(=O)Nc1ccc(F)cc1)[C@H](C)CN([C@H](C)CO)S2(=O)=O	-47.05
Cc1ccccc1-c1ccc(C2[C@@H]3CN(Cc4cccnc4)C[C@H]2N3)cc1 (stereo not given in full)	-32.06

Source: PubChem BioAssay AID1053133 (Broad Institute, 2014).